No constants are given. Whether binding was seen depends on the method and setting.
Target: dN-Vasa (Vasa with the N-terminal disordered region deleted, K133-W601) (Bombyx mori) (UniProt O01378)
Experiment: single-molecule fluorescence intensity counting (TIRF microscopy); TMR-labelled Vasa adsorbed on poly-L-lysine-coated glass; number of molecules in a spot from the intensity of a single TMR; 30 mM HEPES pH 7.3, 150 mM potassium acetate, 5 mM magnesium acetate, 0.1% NP-40, 500 uM TCEP, oxygen scavengers; with 5 ug/ml yeast RNA further oligomerization; both purified

binding: no binding
B1: dN-Vasa (Vasa with the N-terminal disordered region deleted, K133-W601) (domain or fragment, UniProt O01378 133-601)
chain: KPVTYVPPEPTNDETEIFSSTISSGINFDKFDHIAVKVSGENPPRPIESFETANLRKYVLDNVLKAGYRKPTPIQKNAIPIIMSGRDLMGCAQTGSGKTAAFLVPIINMLLQDPKDLISENGCAQPQVIIVSPTRELTLQIFNEARKFSYGSVLKVAVAYGGTAVRHQGDNIARGCHILVATPGRLHDFVERNRVSFGSVRFVVLDEADRMLDMGFMPSIEKMMLHPTMVETTKRQTLMFSATFPEDIQHLAGRFLNNYLFVAVGIVGGASTDVEQIFIEVTKYEKRNSLKQLIEENDGKRILVFVETKRNADFIAAMLSEQQLLTSSIHGDRMQREREEALQNFKSGKHCILVATAVAARGLDIKNVDIVVNYDLPKSIDEYVHRIGRTGRVGNRGKAVSFYDSDQDLALVADLSKILRQADQSVPDFLKGGGTATFKGNKYGGSDVRNFNNANTAVVDQGQEPEEEW
modifications: TMR-labelled HaloTag ligand on the HaloTag

Reference: PMC8664846, “Heterogeneous dissociation process of truncated RNAs by oligomerized Vasa helicase” (Communications Biology, 2021)
